Two molecules from paper PMC12302804 can be followed below.

Assay [1] concerns the target T1, Aspartate/Glutamate Carrier 1 (AGC1) (human (endogenous in HCT116)) (UniProt O75746).
T1 sequence: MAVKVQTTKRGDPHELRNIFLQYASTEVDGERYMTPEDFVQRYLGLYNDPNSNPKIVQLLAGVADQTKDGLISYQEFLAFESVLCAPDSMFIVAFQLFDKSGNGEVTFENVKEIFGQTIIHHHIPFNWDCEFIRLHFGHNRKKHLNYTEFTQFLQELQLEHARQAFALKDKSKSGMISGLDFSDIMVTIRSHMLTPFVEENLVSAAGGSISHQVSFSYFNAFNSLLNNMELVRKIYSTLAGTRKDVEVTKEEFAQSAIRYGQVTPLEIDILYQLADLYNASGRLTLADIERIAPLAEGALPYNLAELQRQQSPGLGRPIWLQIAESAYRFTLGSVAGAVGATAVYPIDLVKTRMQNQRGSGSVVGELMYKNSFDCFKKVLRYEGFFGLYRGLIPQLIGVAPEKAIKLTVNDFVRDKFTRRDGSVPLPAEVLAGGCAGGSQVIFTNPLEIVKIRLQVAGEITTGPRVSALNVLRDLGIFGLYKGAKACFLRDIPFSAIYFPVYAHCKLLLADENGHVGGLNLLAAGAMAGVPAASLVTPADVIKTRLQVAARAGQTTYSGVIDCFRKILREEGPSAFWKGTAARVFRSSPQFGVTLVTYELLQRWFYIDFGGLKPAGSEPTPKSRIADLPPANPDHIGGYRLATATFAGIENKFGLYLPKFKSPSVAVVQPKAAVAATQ
The experiment in a line: co-IP; exogenous, reciprocal; MKRN1-OE HCT116 cells lysed in native lysis buffer; anti-FLAG M2 affinity gel, or 3 µg antibody with rProtein A/G MagBeads, 4 °C overnight; immunoblot. (In western blotting, separated proteins are transferred to a membrane and probed.)

For assay [2], the target named is T1, Aspartate/Glutamate Carrier 1 (AGC1) (human (endogenous in HCT116)). The experiment in a line: co-IP; endogenous, reciprocal; anti-MKRN1 (Bethyl A300-990A-M) or anti-AGC1 (Proteintech 26804-1-AP) with rProtein A/G MagBeads; IgG as control; immunoblot.

No constants are given. Whether binding was seen depends on the method and setting. Binding seen in cells or lysates may run through a third protein. Some entries that bind do so weakly or less than the wild type. For some assays here: Tags and fused reporters may be left off the sequences shown.

B1: flag-tagged Makorin Ring Finger Protein 1 (MKRN1) (protein, UniProt Q9UHC7 1-482)
chain: MAEAATPGTTATTSGAGAAAATAAAASPTPIPTVTAPSLGAGGGGGGSDGSGGGWTKQVTCRYFMHGVCKEGDNCRYSHDLSDSPYSVVCKYFQRGYCIYGDRCRYEHSKPLKQEEATATELTTKSSLAASSSLSSIVGPLVEMNTGEAESRNSNFATVGAGSEDWVNAIEFVPGQPYCGRTAPSCTEAPLQGSVTKEESEKEQTAVETKKQLCPYAAVGECRYGENCVYLHGDSCDMCGLQVLHPMDAAQRSQHIKSCIEAHEKDMELSFAVQRSKDMVCGICMEVVYEKANPSERRFGILSNCNHTYCLKCIRKWRSAKQFESKIIKSCPECRITSNFVIPSEYWVEEKEEKQKLILKYKEAMSNKACRYFDEGRGSCPFGGNCFYKHAYPDGRREEPQRQKVGTSSRYRAQRRNHFWELIEERENSNPFDNDEEEVVTFELGEMLLMLLAAGGDDELTDSEDEWDLFHDELEDFYDLDL
B1: the binding entry in assay [1] is “binds”.

B2: Makorin Ring Finger Protein 1 (MKRN1), endogenous (protein, UniProt Q9UHC7 1-482)
chain: MAEAATPGTTATTSGAGAAAATAAAASPTPIPTVTAPSLGAGGGGGGSDGSGGGWTKQVTCRYFMHGVCKEGDNCRYSHDLSDSPYSVVCKYFQRGYCIYGDRCRYEHSKPLKQEEATATELTTKSSLAASSSLSSIVGPLVEMNTGEAESRNSNFATVGAGSEDWVNAIEFVPGQPYCGRTAPSCTEAPLQGSVTKEESEKEQTAVETKKQLCPYAAVGECRYGENCVYLHGDSCDMCGLQVLHPMDAAQRSQHIKSCIEAHEKDMELSFAVQRSKDMVCGICMEVVYEKANPSERRFGILSNCNHTYCLKCIRKWRSAKQFESKIIKSCPECRITSNFVIPSEYWVEEKEEKQKLILKYKEAMSNKACRYFDEGRGSCPFGGNCFYKHAYPDGRREEPQRQKVGTSSRYRAQRRNHFWELIEERENSNPFDNDEEEVVTFELGEMLLMLLAAGGDDELTDSEDEWDLFHDELEDFYDLDL
As to B2, the binding entry in assay [2] was “binds”.
